According to doi:10.1101/2025.01.08.631848:
No constants are given. Whether binding was seen depends on the method and setting. Binding seen in cells or lysates may run through a third protein. Some results given as binding are weak or reduced against the parent protein; the word gives no strength. Values belong to the molecule of their own block, whether it stands above or below them.

Amino acid sequences for entries named in this document (tags omitted).
UniProt P35222: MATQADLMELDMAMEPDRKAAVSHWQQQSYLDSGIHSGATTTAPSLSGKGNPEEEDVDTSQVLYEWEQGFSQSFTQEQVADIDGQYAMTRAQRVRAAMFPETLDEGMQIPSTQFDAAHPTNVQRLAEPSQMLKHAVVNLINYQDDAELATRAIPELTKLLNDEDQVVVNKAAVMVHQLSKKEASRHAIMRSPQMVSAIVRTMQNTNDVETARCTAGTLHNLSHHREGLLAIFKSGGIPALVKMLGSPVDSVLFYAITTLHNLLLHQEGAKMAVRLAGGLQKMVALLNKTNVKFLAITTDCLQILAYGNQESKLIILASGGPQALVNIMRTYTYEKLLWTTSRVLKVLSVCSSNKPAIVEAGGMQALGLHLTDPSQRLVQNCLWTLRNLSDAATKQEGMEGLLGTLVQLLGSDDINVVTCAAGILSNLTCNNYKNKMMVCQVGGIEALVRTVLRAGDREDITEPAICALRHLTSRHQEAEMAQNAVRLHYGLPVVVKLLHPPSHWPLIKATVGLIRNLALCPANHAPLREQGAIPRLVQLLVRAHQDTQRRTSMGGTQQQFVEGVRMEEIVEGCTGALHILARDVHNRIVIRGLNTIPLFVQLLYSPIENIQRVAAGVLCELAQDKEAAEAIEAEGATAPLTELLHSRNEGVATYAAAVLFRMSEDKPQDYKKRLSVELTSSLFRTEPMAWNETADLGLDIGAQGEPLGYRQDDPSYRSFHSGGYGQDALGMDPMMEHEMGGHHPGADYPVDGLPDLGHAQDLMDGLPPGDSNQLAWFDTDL
UniProt Q96BN8: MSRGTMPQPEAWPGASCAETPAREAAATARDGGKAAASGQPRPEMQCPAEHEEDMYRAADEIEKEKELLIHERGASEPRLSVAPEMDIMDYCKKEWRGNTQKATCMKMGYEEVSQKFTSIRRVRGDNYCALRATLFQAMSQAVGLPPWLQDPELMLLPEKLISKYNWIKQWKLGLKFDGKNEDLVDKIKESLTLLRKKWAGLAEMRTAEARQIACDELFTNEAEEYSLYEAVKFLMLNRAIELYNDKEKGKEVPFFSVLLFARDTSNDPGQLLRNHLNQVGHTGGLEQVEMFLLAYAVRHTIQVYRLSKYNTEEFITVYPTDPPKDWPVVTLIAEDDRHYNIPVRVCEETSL

Molecular target: β-catenin (human (endogenous in HaCaT)) (UniProt P35222)
Assay: co-IP

binding: binds
Molecule: OTULIN (OTU DUB with linear linkage specificity) (from UniProt Q96BN8 1-352) (enzyme)

binding: binds
B1: Shank Associated RH Domain Interacting protein (SHARPIN) (protein, UniProt Q9H0F6 1-387)
chain: MAPPAGGAAAAASDLGSAAVLLAVHAAVRPLGAGPDAEAQLRRLQLSADPERPGRFRLELLGAGPGAVNLEWPLESVSYTIRGPTQHELQPPPGGPGTLSLHFLNPQEAQRWAVLVRGATVEGQNGSKSNSPPALGPEACPVSLPSPPEASTLKGPPPEADLPRSPGNLTEREELAGSLARAIAGGDEKGAAQVAAVLAQHRVALSVQLQEACFPPGPIRLQVTLEDAASAASAASSAHVALQVHPHCTVAALQEQVFSELGFPPAVQRWVIGRCLCVPERSLASYGVRQDGDPAFLYLLSAPREAPATGPSPQHPQKMDGELGRLFPPSLGLPPGPQPAASSLPSPLQPSWSCPSCTFINAPDRPGCEMCSTQRPCTWDPLAAAST
